Laboratory results: PMC10620822
No constants are given. Whether binding was seen depends on the method and setting. In cells and extracts the contact can be indirect. Here binding means that the protein was enriched with, or labelled near, the bait; the list need not be complete.

Target: Flag-CENPA (human) (UniProt P49450)
Assay: affinity purification with mass spectrometry; Flag-CENPA expressed in HEK293T cells, co-IP to enrich interacting proteins, silver staining, mass spectrometry

binding: binds
Substance: YY1 (endogenous, HEK293T) (from UniProt P25490 1-414)
